PubChem BioAssay AID1224828, NIAID | 2016
Screen: 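Regulators linking TLR4 signalling to p65 nuclear translocation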 (primary screen). System: mouse RAW264.7 G9 macrophage reporter cells (GFP-p65, Tnf promoter-mCherry). Knock-down reagent: siRNA pool against mouse genes, 100 nM. Timing: 2 days siRNA transfection, then 40 min LPS before fixation. Challenge: LPS (Salmonella minnesota R595) at 10 ng/ml. Measured: 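Imaged p65 nuclear translocation ratio, normalised to the plate median, converted to robust z-scores and averaged across two replicates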. Direction: p65 translocation robust z-score: higher = more nuclear NF-kappaB p65 after LPS than the plate median; nuclear/cytoplasmic p65 ratio: higher = more nuclear NF-kappaB p65. Call rule: 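Active if robust z is above 3.3 (negative regulators) or below -1.56, the Tlr4 control median (positive regulators); activity score 50 or more; control wells not called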. Calls: active = hit (p65 shift raised or lowered); inactive = no clear change.
The whole screen tested about 17,000 reagents; below is a part drawn at random. 762 of them (4.5%) count as active. 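Active calls include both raised and lowered p65 entry, mostly lowered; wells with fewer than 50 cells lack a z-score.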 Raw values are not corrected between plates. Unmarked entries are inactive. The numbers tell different reagents against one gene apart.

| Gene | pool no. | p65 translocation robust z-score | nuclear/cytoplasmic p65 ratio, rep 1 | nuclear/cytoplasmic p65 ratio, rep 2 | low cell count flag |
| --- | --- | --- | --- | --- | --- |
| Ghrl (ghrelin) | 1 | -1.3 | 1.06 | 1.23 | enough cells to score |
| Ackr1 (atypical chemokine receptor 1) | 1 | -0.7 | 1.39 | 1.5 | enough cells to score |
| 1810009J06Rik (RIKEN cDNA 1810009J06 gene) | 1 | 0.3 | 1.45 | 1.44 | enough cells to score |
| Rtcb (RNA 2',3'-cyclic phosphate and 5'-OH ligase) | 1 | 0.97 | 1.61 | 2.06 | enough cells to score |
| Fign (fidgetin) | 1 | 0.06 | 1.57 | 1.5 | enough cells to score |
| Ren1 (renin 1 structural) | 1 | -0.53 | 1.46 | 1.43 | enough cells to score |
| Cant1 (calcium activated nucleotidase 1) | 1 | -0.23 | 1.44 | 1.33 | enough cells to score |
| Gnrhr (gonadotropin releasing hormone receptor) | 1 | 0.76 | 1.66 | 1.65 | enough cells to score |
| Dmp1 (dentin matrix protein 1) | 1 | – | 1.03 | 1.17 | fewer than 50 cells per well; well left out of scoring |
| Nhlrc2 (NHL repeat containing 2) | 1 | -1.95 (active) | 1.4 | 1.26 | enough cells to score |
| Hoxa5 (homeobox A5) | 1 | 0.65 | 1.72 | 1.66 | enough cells to score |
| Reg2 (regenerating islet-derived 2) | 1 | -0.75 | 1.24 | 1.2 | enough cells to score |
| Rgs10 (regulator of G-protein signalling 10) | 1 | 1.52 | 1.67 | 1.35 | enough cells to score |
| Vldlr (very low density lipoprotein receptor) | 1 | 0.11 | 1.51 | 1.53 | enough cells to score |
| Ppp1r11 (protein phosphatase 1, regulatory inhibitor subunit 11) | 1 | -0.97 | 1.34 | 1.3 | enough cells to score |
| Dvl1 (dishevelled segment polarity protein 1) | 1 | -0.14 | 1.48 | 1.34 | enough cells to score |
| Mtcp1 (mature T cell proliferation 1) | 1 | 0.03 | 1.42 | 1.37 | enough cells to score |
| Adhfe1 (alcohol dehydrogenase, iron containing, 1) | 1 | 0.52 | 1.64 | 1.81 | enough cells to score |
| Rgs11 (regulator of G-protein signaling 11) | 1 | -0.38 | 1.4 | 1.59 | enough cells to score |
| Or4c104 (olfactory receptor family 4 subfamily C member 104) | 1 | – | 1.67 | 1.24 | fewer than 50 cells per well; well left out of scoring |
| Klf7 (Kruppel-like transcription factor 7 (ubiquitous)) | 1 | 1.23 | 1.54 | 1.53 | enough cells to score |
| Gna15 (guanine nucleotide binding protein, alpha 15) | 1 | 0.08 | 1.52 | 1.59 | enough cells to score |
| Rapgef6 (Rap guanine nucleotide exchange factor (GEF) 6) | 1 | -0.04 | 1.43 | 1.51 | enough cells to score |
| Gm9871 (predicted gene 9871) | 1 | 0.66 | 1.6 | 1.45 | enough cells to score |
| Zfp59 (zinc finger protein 59) | 1 | – | 1.42 | 1.24 | fewer than 50 cells per well; well left out of scoring |
| Krtap5-4 (keratin associated protein 5-4) | 1 | 1.5 | 1.55 | 1.83 | enough cells to score |
| Stpg1 (sperm tail PG rich repeat containing 1) | 1 | – | 1.28 | 1.63 | fewer than 50 cells per well; well left out of scoring |
| Rac3 (Rac family small GTPase 3) | 1 | 0.94 | 1.71 | 1.59 | enough cells to score |
| Pnma2 (paraneoplastic antigen MA2) | 1 | -1.28 | 1.28 | 1.08 | enough cells to score |
| D830016O14Rik (RIKEN cDNA D830016O14 gene) | 1 | 1.06 | 1.72 | 1.71 | enough cells to score |
| Dnph1 (2'-deoxynucleoside 5'-phosphate N-hydrolase 1) | 1 | 0.68 | 1.63 | 1.56 | enough cells to score |
| Rere (arginine glutamic acid dipeptide (RE) repeats) | 1 | -0.71 | 1.64 | 1.41 | enough cells to score |
| Eef2k (eukaryotic elongation factor-2 kinase) | 1 | -1.82 (active) | 1.4 | 1.18 | enough cells to score |
| Cse1l (chromosome segregation 1 like) | 1 | 0.7 | 1.76 | 1.45 | enough cells to score |
| Kif21a (kinesin family member 21A) | 1 | -0.19 | 1.5 | 1.43 | enough cells to score |
| Tnni3 (troponin I, cardiac 3) | 1 | -0.76 | 1.48 | 1.35 | enough cells to score |
| Ahrr (aryl-hydrocarbon receptor repressor) | 1 | 0.46 | 1.66 | 1.72 | enough cells to score |
| Sytl2 (synaptotagmin-like 2) | 1 | -0.66 | 1.2 | 1.12 | enough cells to score |

Taken from above:
For “low cell count flag”, Stpg1 (sperm tail PG rich repeat containing 1) reads fewer than 50 cells per well; well left out of scoring
Gnrhr (gonadotropin releasing hormone receptor), nuclear/cytoplasmic p65 ratio, rep 2 → 1.65
Under “low cell count flag”, 1810009J06Rik (RIKEN cDNA 1810009J06 gene) is entered as enough cells to score
For “nuclear/cytoplasmic p65 ratio, rep 1”, Vldlr (very low density lipoprotein receptor) reads 1.51
Under “nuclear/cytoplasmic p65 ratio, rep 2”, Mtcp1 (mature T cell proliferation 1) shows 1.37
Pnma2 (paraneoplastic antigen MA2), nuclear/cytoplasmic p65 ratio, rep 2 = 1.08

Additional entries follow.
| Gene | pool no. | p65 translocation robust z-score | nuclear/cytoplasmic p65 ratio, rep 1 | nuclear/cytoplasmic p65 ratio, rep 2 | low cell count flag |
| --- | --- | --- | --- | --- | --- |
| Psmg1 (proteasome (prosome, macropain) assembly chaperone 1) | 1 | -1.14 | 1.24 | 1.29 | enough cells to score |
| Prr18 (proline rich 18) | 1 | -0.63 | 1.32 | 1.46 | enough cells to score |
| Pals2 (protein associated with LIN7 2, MAGUK family member) | 1 | 1.51 | 1.75 | 1.73 | enough cells to score |
| Pals2 (protein associated with LIN7 2, MAGUK family member) | 2 | 0.82 | 1.95 | 1.68 | enough cells to score |
| Tagln2 (transgelin 2) | 1 | 1.69 | 1.75 | 1.94 | enough cells to score |
| Pik3r3 (phosphoinositide-3-kinase regulatory subunit 3) | 1 | -1.21 | 1.47 | 1.25 | enough cells to score |
| Ripply3 (ripply transcriptional repressor 3) | 1 | -0.55 | 1.4 | 1.28 | enough cells to score |
| Nectin2 (nectin cell adhesion molecule 2) | 1 | -1.06 | 1.38 | 1.36 | enough cells to score |
| Ogdh (oxoglutarate (alpha-ketoglutarate) dehydrogenase (lipoamide)) | 1 | -0.53 | 1.42 | 1.31 | enough cells to score |
| Ube2v1 (ubiquitin-conjugating enzyme E2 variant 1) | 1 | 0.43 | 1.42 | 1.3 | enough cells to score |
| C030016D13Rik (RIKEN cDNA C030016D13 gene) | 1 | – | 1.21 | 1.39 | fewer than 50 cells per well; well left out of scoring |
| Slc5a7 | 1 | – | 1.53 | 1.27 | fewer than 50 cells per well; well left out of scoring |
| Gdnf (glial cell line derived neurotrophic factor) | 1 | -0.42 | 1.39 | 1.31 | enough cells to score |
| Calml3 (calmodulin-like 3) | 1 | -1.15 | 1.43 | 1.59 | enough cells to score |
| Ott (ovary testis transcribed) | 1 | – | 1.35 | 1.01 | fewer than 50 cells per well; well left out of scoring |
| Pomp (proteasome maturation protein) | 1 | – | 1.23 | 1.17 | fewer than 50 cells per well; well left out of scoring |
| Tmem80 (transmembrane protein 80) | 1 | 0.07 | 1.35 | 1.49 | enough cells to score |
| Rps21 (ribosomal protein S21) | 1 | 0.25 | 1.58 | 1.52 | enough cells to score |
| Plxna4os2 (plexin A4, opposite strand 2) | 1 | – | 1.29 | 1.67 | fewer than 50 cells per well; well left out of scoring |
| Ctr9 (CTR9 homolog, Paf1/RNA polymerase II complex component) | 1 | 0.51 | 1.45 | 1.32 | enough cells to score |
| St8sia5 (ST8 alpha-N-acetyl-neuraminide alpha-2,8-sialyltransferase 5) | 1 | -0.2 | 1.42 | 1.23 | enough cells to score |
| Abra (actin-binding Rho activating protein) | 1 | 0.18 | 1.67 | 1.61 | enough cells to score |
| Rprm (reprimo, TP53 dependent G2 arrest mediator candidate) | 1 | 1.03 | 1.82 | 1.71 | enough cells to score |
| Tmprss4 (transmembrane protease, serine 4) | 1 | – | 0 | 1.09 | fewer than 50 cells per well; well left out of scoring |
| Tspan9 (tetraspanin 9) | 1 | -0.23 | 1.48 | 1.42 | enough cells to score |
| Tmem179 (transmembrane protein 179) | 1 | 0.38 | 1.58 | 1.82 | enough cells to score |
| Ferd3l (Fer3 like bHLH transcription factor) | 1 | -0.49 | 1.47 | 1.44 | enough cells to score |
| Tmem63c (transmembrane protein 63c) | 1 | 1.3 | 1.61 | 1.71 | enough cells to score |
| Tas2r107 (taste receptor, type 2, member 107) | 1 | 0.34 | 1.54 | 1.66 | enough cells to score |
| Unc5c (unc-5 netrin receptor C) | 1 | 0.07 | 1.59 | 1.45 | enough cells to score |
| Myadm (myeloid-associated differentiation marker) | 1 | -0.66 | 1.67 | 1.5 | enough cells to score |
| Panx3 (pannexin 3) | 1 | – | 1.44 | 1.3 | fewer than 50 cells per well; well left out of scoring |
| Dio3 (deiodinase, iodothyronine type III) | 1 | 4.65 (active) | 2.07 | 1.95 | enough cells to score |
| Plac8 (placenta-specific 8) | 1 | – | 1.56 | 1.42 | fewer than 50 cells per well; well left out of scoring |
| Arap3 (ArfGAP with RhoGAP domain, ankyrin repeat and PH domain 3) | 1 | – | 1.31 | 1.37 | fewer than 50 cells per well; well left out of scoring |
| Or51a5 (olfactory receptor family 51 subfamily A member 5) | 1 | -0.72 | 1.34 | 1.24 | enough cells to score |
| Dock11 (dedicator of cytokinesis 11) | 1 | – | 1.34 | 1.46 | fewer than 50 cells per well; well left out of scoring |
